Measurements reported in the supplement of paper PMC10849652.
The other results are listed elsewhere or left out.

Sequences of proteins named here, by UniProt entry; tags and fusion partners are left off. A change or cut given only in a name is not applied to a line headed by its entry.
UniProt Q01518, whole entry, looked up: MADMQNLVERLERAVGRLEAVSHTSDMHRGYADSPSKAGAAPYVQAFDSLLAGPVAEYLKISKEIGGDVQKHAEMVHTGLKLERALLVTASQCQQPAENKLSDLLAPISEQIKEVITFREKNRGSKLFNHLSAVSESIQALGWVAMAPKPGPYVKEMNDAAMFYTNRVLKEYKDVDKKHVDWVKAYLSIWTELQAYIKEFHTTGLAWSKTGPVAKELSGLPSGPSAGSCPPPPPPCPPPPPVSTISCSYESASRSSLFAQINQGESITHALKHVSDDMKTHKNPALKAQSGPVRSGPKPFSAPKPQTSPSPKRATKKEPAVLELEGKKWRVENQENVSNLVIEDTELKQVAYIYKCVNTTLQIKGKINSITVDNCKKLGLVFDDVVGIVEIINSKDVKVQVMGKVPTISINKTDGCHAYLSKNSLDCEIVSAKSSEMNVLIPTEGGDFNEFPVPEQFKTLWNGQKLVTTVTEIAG
UniProt Q9Y426: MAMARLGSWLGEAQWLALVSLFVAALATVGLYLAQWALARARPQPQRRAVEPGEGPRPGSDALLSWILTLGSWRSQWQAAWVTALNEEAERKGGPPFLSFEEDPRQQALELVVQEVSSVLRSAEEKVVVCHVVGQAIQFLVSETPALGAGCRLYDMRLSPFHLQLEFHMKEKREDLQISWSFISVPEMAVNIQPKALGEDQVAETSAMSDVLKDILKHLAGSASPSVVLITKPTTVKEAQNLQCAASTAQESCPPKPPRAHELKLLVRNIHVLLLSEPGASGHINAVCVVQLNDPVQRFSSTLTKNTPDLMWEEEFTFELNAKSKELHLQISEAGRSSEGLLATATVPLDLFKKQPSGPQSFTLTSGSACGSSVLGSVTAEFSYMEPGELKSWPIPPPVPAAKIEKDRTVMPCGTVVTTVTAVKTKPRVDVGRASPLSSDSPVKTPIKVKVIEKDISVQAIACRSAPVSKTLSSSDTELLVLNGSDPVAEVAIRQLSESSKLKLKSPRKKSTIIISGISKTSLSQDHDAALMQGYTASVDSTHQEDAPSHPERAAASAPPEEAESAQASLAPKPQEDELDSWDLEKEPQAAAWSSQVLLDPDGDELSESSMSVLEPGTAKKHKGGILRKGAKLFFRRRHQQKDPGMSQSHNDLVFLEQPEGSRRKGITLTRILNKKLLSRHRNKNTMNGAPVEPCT
UniProt P0C0L4: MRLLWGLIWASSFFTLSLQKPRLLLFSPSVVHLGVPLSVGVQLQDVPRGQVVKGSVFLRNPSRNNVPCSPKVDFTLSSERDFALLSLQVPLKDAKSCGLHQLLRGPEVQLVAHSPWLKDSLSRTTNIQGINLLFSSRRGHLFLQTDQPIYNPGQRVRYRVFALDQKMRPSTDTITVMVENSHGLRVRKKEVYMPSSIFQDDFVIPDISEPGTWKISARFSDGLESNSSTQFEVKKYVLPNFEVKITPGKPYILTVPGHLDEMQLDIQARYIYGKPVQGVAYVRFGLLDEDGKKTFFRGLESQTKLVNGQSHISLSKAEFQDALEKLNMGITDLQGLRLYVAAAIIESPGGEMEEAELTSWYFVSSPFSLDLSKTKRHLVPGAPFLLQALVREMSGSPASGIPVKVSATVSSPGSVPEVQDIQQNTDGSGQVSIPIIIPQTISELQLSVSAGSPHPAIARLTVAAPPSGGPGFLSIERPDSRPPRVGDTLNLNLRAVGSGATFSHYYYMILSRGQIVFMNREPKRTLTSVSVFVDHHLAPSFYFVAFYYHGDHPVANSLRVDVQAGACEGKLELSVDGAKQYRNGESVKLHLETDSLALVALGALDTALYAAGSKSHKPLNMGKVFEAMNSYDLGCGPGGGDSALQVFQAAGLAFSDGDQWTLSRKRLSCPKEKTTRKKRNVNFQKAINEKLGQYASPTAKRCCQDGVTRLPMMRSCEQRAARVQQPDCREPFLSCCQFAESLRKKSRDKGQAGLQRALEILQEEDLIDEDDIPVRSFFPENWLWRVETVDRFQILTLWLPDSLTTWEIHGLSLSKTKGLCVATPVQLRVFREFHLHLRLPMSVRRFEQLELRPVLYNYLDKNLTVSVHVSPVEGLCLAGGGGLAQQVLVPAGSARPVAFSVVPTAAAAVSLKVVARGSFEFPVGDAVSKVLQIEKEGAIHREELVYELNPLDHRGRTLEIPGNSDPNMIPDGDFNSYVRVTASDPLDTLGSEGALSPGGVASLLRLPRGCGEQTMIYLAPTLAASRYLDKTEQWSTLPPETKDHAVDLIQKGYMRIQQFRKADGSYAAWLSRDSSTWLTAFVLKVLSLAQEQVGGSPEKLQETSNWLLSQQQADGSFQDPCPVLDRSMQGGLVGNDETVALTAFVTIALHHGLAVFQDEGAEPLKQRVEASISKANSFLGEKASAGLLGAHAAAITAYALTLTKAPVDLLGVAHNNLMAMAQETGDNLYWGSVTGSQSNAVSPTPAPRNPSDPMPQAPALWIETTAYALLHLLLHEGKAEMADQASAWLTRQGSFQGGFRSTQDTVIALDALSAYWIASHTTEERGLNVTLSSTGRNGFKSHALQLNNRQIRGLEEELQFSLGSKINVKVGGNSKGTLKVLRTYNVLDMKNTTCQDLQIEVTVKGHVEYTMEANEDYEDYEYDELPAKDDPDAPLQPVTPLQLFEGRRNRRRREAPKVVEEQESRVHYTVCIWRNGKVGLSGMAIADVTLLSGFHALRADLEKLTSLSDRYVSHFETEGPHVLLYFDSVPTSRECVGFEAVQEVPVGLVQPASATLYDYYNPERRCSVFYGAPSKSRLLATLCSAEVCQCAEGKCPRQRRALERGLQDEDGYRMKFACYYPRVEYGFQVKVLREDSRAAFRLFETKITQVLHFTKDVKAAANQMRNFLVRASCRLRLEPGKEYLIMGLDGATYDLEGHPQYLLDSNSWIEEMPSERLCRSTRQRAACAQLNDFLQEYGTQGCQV
UniProt Q6P5X5: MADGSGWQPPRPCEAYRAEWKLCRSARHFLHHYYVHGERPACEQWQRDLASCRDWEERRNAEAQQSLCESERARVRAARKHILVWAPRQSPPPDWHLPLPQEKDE
UniProt Q6ZRI6: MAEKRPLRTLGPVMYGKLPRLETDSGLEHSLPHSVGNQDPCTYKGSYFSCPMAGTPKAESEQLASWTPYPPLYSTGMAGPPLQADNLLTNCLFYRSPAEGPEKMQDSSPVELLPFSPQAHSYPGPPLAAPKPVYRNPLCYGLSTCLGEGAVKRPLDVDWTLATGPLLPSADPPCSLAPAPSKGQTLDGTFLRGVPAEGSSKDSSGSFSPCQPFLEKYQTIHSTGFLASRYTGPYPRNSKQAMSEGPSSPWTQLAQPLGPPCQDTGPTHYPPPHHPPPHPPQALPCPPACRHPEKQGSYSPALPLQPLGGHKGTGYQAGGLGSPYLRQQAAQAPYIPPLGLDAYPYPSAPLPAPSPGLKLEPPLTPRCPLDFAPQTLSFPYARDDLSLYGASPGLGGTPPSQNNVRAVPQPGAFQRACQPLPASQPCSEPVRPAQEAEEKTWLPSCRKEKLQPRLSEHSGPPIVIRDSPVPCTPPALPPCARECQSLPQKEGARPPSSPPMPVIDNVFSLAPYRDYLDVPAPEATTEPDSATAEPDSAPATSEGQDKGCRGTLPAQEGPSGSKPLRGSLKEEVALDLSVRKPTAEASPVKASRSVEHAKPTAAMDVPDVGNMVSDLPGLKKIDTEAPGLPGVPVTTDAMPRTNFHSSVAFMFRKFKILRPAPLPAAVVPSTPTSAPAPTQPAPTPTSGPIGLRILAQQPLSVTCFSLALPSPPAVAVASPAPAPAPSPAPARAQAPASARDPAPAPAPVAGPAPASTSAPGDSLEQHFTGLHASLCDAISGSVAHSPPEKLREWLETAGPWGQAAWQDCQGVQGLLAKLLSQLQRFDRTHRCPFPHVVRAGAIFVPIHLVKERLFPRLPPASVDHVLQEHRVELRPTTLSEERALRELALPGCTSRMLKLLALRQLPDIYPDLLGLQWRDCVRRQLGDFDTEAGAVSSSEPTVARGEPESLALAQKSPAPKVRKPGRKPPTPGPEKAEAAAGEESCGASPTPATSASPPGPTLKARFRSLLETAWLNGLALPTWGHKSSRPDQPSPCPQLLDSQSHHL
UniProt Q9BPX7: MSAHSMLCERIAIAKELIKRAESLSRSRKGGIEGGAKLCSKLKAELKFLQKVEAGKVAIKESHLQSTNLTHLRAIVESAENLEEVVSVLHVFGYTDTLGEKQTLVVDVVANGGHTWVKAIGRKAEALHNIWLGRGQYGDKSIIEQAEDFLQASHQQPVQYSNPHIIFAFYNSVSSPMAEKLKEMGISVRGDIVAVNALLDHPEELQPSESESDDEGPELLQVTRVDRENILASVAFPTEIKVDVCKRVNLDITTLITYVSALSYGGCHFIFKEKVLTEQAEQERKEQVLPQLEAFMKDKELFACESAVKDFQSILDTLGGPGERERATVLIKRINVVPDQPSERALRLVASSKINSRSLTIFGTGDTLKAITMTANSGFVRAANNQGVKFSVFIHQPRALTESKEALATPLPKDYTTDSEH
UniProt Q13554, whole entry, looked up: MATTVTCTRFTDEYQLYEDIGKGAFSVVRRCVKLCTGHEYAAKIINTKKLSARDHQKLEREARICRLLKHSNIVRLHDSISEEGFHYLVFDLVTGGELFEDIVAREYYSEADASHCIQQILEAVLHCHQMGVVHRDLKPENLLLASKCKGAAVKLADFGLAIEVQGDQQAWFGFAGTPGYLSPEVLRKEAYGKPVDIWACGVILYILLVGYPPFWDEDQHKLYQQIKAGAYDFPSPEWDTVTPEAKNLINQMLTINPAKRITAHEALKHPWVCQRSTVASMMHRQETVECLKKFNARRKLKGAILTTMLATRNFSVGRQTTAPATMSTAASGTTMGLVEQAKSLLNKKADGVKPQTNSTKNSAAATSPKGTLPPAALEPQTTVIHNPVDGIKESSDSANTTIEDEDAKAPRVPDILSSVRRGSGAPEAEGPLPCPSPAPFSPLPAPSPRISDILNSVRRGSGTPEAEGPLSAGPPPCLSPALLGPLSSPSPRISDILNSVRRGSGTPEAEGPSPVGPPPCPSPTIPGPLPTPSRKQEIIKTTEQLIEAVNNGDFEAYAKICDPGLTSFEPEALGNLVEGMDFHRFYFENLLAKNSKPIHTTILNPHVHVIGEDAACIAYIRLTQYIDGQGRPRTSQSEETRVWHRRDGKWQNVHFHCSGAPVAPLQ
UniProt Q6P1S2: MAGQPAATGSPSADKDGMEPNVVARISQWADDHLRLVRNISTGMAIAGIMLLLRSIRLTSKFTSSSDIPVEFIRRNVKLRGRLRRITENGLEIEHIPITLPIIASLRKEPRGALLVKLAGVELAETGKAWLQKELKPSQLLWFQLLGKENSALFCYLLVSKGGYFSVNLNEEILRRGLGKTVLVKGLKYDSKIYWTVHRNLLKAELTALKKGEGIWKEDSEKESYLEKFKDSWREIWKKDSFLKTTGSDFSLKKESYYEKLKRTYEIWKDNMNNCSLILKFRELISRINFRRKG
UniProt Q96NL8: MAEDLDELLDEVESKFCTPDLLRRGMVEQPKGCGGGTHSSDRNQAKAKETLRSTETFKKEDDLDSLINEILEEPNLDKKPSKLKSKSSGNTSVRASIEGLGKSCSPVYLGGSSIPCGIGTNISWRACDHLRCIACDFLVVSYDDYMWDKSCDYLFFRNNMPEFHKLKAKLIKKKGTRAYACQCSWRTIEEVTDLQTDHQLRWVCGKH
UniProt Q3KRA6: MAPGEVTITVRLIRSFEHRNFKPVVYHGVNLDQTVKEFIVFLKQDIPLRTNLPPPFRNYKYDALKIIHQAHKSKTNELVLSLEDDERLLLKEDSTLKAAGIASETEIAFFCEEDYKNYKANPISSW
UniProt O00478: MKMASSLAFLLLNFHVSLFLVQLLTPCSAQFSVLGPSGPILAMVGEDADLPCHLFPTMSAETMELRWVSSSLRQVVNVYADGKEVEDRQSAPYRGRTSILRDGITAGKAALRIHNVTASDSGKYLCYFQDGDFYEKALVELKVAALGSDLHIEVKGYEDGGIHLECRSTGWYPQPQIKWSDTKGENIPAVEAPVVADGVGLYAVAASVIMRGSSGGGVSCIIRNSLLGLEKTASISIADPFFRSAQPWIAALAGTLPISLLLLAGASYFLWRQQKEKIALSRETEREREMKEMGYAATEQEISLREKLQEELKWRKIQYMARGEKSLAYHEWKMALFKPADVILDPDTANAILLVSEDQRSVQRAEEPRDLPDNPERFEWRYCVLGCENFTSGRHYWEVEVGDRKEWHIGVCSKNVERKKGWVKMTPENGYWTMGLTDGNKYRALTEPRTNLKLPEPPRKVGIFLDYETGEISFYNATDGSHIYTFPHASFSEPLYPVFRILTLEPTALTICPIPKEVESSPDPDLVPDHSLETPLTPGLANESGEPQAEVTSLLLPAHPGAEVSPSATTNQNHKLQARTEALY

Legend:
Assay in all cases: log2 fold change, soluble protein after heating vs DMSO (PISA); higher = thermal stabilisation; K562 lysate, 10 uM; active = over 0.2 and 3.5 SD of the protein, either way, in both replicates (recomputed)
alvocidib = compound: CN1CC[C@H](c2c(O)cc(O)c3c(=O)cc(-c4ccccc4Cl)oc23)[C@H](O)C1 [alvocidib]
Summary of the method: (§1)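 Values give the log-two fold change in thermal stability against solvent controls, from duplicates. Crude K562 extract at 1 mg/mL protein, made by dounce homogenisation in PBS pH 7.4 with 1 mM MgCl2, was treated with 10 μM compound for 30 min. After 3 min heating across 48°C-58°C, aliquots were pooled, adjusted to 0.5% NP-40 at 4°C and centrifuged at 21,000xg for 90 min. The supernatant was measured by TMTpro 16plex LC-MS/MS with channel sums equalised.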

Tubastatin A = compound: CN1CCc2c(c3ccccc3n2Cc2ccc(C(=O)NO)cc2)C1 [Tubastatin A]
Summary of the method: as §1

[1] = compound: CNC(=O)C1=CC=CC=C1NC2=NC(=NC=C2Cl)NC3=C(C=C(C=C3)N4CCOCC4)OC
Summary of the method: as §1

[2] = compound: CNc1nc(-c2ccc3c(N)n[nH]c3c2)cc(N2C[C@@H](C(=O)NC3CCCCC3)CC[C@H]2C)n1
Summary of the method: as §1

encorafenib = compound: COC(=O)N[C@@H](C)CNc1nccc(-c2cn(C(C)C)nc2-c2cc(Cl)cc(NS(C)(=O)=O)c2F)n1 [encorafenib]
Summary of the method: as §1

[3] = compound: COC(=O)[C@H](CCSC)NC(=O)C1=C(C=C(C=C1)NC[C@H](CS)N)C2=CC=CC=C2
Summary of the method: as §1

defactinib = compound: CNC(=O)c1ccc(Nc2ncc(C(F)(F)F)c(NCc3nccnc3N(C)S(C)(=O)=O)n2)cc1 [defactinib]
Summary of the method: as §1

[4] = compound: COc1cc2nc(-c3cc(F)ccc3O)nc(N[C@@H]3CNC[C@H]3C(C)(C)O)c2cc1OC
Summary of the method: as §1

alisertib = compound: COc1cc(Nc2ncc3c(n2)-c2ccc(Cl)cc2C(c2c(F)cccc2OC)=NC3)ccc1C(=O)O [alisertib]
Summary of the method: as §1

gefitinib = compound: COc1cc2ncnc(Nc3ccc(F)c(Cl)c3)c2cc1OCCCN1CCOCC1 [gefitinib]
Summary of the method: as §1

Measured: log2 fold change

CAP1 isoform 2 (UniProt Q01518)
inactive: alvocidib 0.031 | Tubastatin A 0.213 | [1] -0.051 | [2] -0.041

C2CD2 (UniProt Q9Y426)
inactive: alvocidib -0.068 | Tubastatin A -0.008 | [1] -0.003 | [2] 0.139 | encorafenib 0.025 | [3] -0.166

C4A (UniProt P0C0L4)
inactive: alvocidib -0.075 | Tubastatin A 0.051 | [1] -0.01 | defactinib 0.03 | [2] -0.012 | encorafenib 0.005 | [3] -0.005 | [4] 0.025

C22orf39 (UniProt Q6P5X5)
inactive: alvocidib 0.014 | Tubastatin A -0.001 | defactinib 0.096 | [2] 0.029 | encorafenib -0.128 | [3] 0.013 | alisertib 0.087 | [4] 0.118 | gefitinib 0

C15orf39 (UniProt Q6ZRI6)
inactive: alvocidib -0.04 | Tubastatin A -0.188 | [1] -0.031 | [2] 0.089 | encorafenib 0.047 | [3] 0.059 | alisertib 0.036 | gefitinib -0.067

C7orf25 isoform 2 (UniProt Q9BPX7)
inactive: alvocidib 0.013 | Tubastatin A 0.008 | [1] 0.065 | defactinib 0.036 | [2] -0.083 | encorafenib 0.054 | [3] -0.039 | [4] 0.128

CAMK2B (UniProt Q13554)
inactive: alvocidib 0.318 | Tubastatin A -0.035 | defactinib 0.009 | [2] -0.069 | encorafenib -0.045 | [3] 0.067 | alisertib 0.001 | [4] -0.005 | gefitinib 0.026

CAD (UniProt H7BZB3)
inactive: alvocidib 0.005 | [1] 0.28 | defactinib 0.036 | encorafenib 0.113 | [3] 0.059

C3orf33 (UniProt Q6P1S2)
inactive: alvocidib -0.166 | Tubastatin A 0.124 | [1] -0.084 | defactinib 0.224 | [2] 0.115 | alisertib -0.13 | [4] -0.111 | gefitinib 0.006

C8orf37 (UniProt Q96NL8)
inactive: alvocidib -0.146 | Tubastatin A 0.022 | [1] -0.035 | defactinib 0.281 | [2] -0.099 | encorafenib 0.018 | [3] -0.011 | [4] 0.162

C2orf76 (UniProt Q3KRA6)
inactive: alvocidib 0.051 | Tubastatin A 0.052 | [1] -0.035 | [2] 0.008 | encorafenib 0.017 | [3] 0.038 | alisertib 0.018 | [4] -0.013 | gefitinib -0.005

BTN3A3 (UniProt O00478)
inactive: alvocidib -0.107 | Tubastatin A -0.062 | [1] -0.192 | defactinib 0.228 | [2] -0.227 | alisertib -0.04 | gefitinib 0.165
